Experimental data taken from the supplement of paper PMC9015667.
Counter-ions that a name gives are not always drawn. The list shows a part of the results. Most values come without repeats; read them as rough.

These compounds were tested on UACC62R (matched melanoma line resistant to BRAF inhibitors) (assay: reduction in cell viability relative to untreated/vehicle; higher = more growth inhibition). Details: 200 nM; 72 h.
In the case of `C=CCNC1=C2C[C@@H](C)C[C@H](OC)[C@H](O)[C@@H](C)/C=C(\C)[C@H](OC(N)=O)[C@@H](OC)/C=C\C=C(/C)C(=O)NC(=CC1=O)C2=O` [Tanespimycin], the “reduction in cell viability” value is reported as 77.3%.
`CCCS(=O)(=O)Nc1ccc(F)c(C(=O)c2c[nH]c3ncc(-c4ccc(Cl)cc4)cc23)c1F` [Vemurafenib (PLX4032, RG7204)] was tested, and the “reduction in cell viability” value was less than 0%.
For `Cc1cn2c(-c3cn[nH]c3)cnc2c(Nc2ccc(C(=O)N3CCNCC3)cc2F)n1`, the “reduction in cell viability” value was less than 0%.
For `CCc1cc(/C(C)=N/OCc2ccc(C3CCCCC3)c(C(F)(F)F)c2)ccc1CN1CC(C(=O)O)C1`, the “reduction in cell viability” value was less than 0%.
In the case of `CCn1cc(C(=O)O)c(=O)c2cc(F)c(N3CCNC(C)C3)c(F)c21` (centres undefined) [Lomefloxacin hydrochloride], the “reduction in cell viability” value is reported as less than 0%.
`Cc1c(CN2CCN(C(=O)[C@H](C)O)CC2)sc2c(N3CCOCC3)nc(-c3cnc(N)nc3)nc12` was tested, and the “reduction in cell viability” value was 32.6%.
With `N=C(N)c1ccc(OCCCCCOc2ccc(C(=N)N)cc2)cc1` [Pentamidine isethionate] the “reduction in cell viability” value was less than 0%.
For `CC(S)C(=O)NCC(=O)O` (centres undefined) [Tiopronin], the “reduction in cell viability” value was less than 0%.
For `Nc1nc2[nH]cnc2c(=S)[nH]1` [Tioguanine], the “reduction in cell viability” value was 40.8%.
With `O=c1c(O)c(-c2cc(O)c(O)c(O)c2)oc2cc(O)cc(O)c12` [Myricetin] the “reduction in cell viability” value was less than 0%.
`COc1ccccc1N1CCN(CC(O)COc2cccc3ccccc23)CC1` (centres undefined) [Naftopidil] was tested, and the “reduction in cell viability” value was less than 0%.
For `CN1CC[C@H](c2c(O)cc(O)c3c(=O)cc(-c4ccccc4Cl)oc23)[C@H](O)C1` [Flavopiridol], the “reduction in cell viability” value was 72.7%.
For `COc1cc(OC)cc(-c2ccc3ncc4ccc(=O)n(-c5ccc(N6CCNCC6)c(C(F)(F)F)c5)c4c3c2)c1`, the “reduction in cell viability” value was 6.65%.
In the case of `O=C(O)C[C@H](O)C[C@H](O)/C=C/c1c(C2CC2)nc2ccccc2c1-c1ccc(F)cc1` [Pitavastatin calcium], the “reduction in cell viability” value is reported as less than 0%.
For `C=C1/C(=C\C=C2/CCC[C@]3(C)[C@@H]([C@H](C)/C=C/C=C/C(O)(CC)CC)CC[C@@H]23)C[C@@H](O)C[C@@H]1O` [Seocalcitol], the “reduction in cell viability” value was less than 0%.
In the case of `CCOc1cc2ncc(C#N)c(Nc3ccc(F)c(Cl)c3)c2cc1NC(=O)/C=C/CN(C)C` [Pelitinib], the “reduction in cell viability” value is reported as 29.3%.
In the case of `Cc1cccc(-c2[nH]ncc2-c2ccc3ncccc3n2)n1`, the “reduction in cell viability” value is reported as less than 0%.
In the case of `CCC(=O)NCC[C@@H]1CCc2ccc3c(c21)CCO3` [Ramelteon], the “reduction in cell viability” value is reported as less than 0%.
For `C[C@H](Cc1cc2c(c(C(N)=O)c1)N(CCCO)CC2)NCCOc1ccccc1OCC(F)(F)F` [Silodosin], the “reduction in cell viability” value was less than 0%.
With `Nc1ccc(C(=O)Nc2cccc(-c3nc(N4CCOCC4)c4oc5ncccc5c4n3)c2)cn1` the “reduction in cell viability” value was less than 0%.
In the case of `O=C(O)c1nc(=O)[nH]c(=O)[nH]1` [Oteracil potassium], the “reduction in cell viability” value is reported as less than 0%.
With `Cc1cn([C@H]2C[C@H](N=[N+]=[N-])[C@@H](CO)O2)c(=O)[nH]c1=O` [Zidovudine] the “reduction in cell viability” value was less than 0%.
In the case of `Cc1cc2cc3c(C)cc(=O)oc3c(C)c2o1` [Trioxsalen], the “reduction in cell viability” value is reported as less than 0%.
For `CCCCCCNC(=O)n1cc(F)c(=O)[nH]c1=O` [Carmofur], the “reduction in cell viability” value was less than 0%.
`OC[C@H]1O[C@@H](n2cnc3c2N=CNC[C@H]3O)C[C@@H]1O` [Pentostatin] was tested, and the “reduction in cell viability” value was less than 0%.
With `N[C@@H](Cc1cc(I)c(Oc2cc(I)c(O)c(I)c2)c(I)c1)C(=O)O` [L-Thyroxine] the “reduction in cell viability” value was less than 0%.
With `CCCCCCCCCCCCCCCCCCOP(=O)([O-])OC1CC[N+](C)(C)CC1` [Perifosine] the “reduction in cell viability” value was less than 0%.
`CN1C(=O)C[C@@H](C(=O)N[C@@H](Cc2c[nH]cn2)C(=O)N2CCC[C@H]2C(N)=O)NC1=O` [Taltirelin] was tested, and the “reduction in cell viability” value was less than 0%.
For `O=C(NC[C@H](O)CO)c1ccncc1Nc1ccc(I)cc1F` [Pimasertib], the “reduction in cell viability” value was 50.1%.
In the case of `CC(C)C[C@@H](C=O)NC(=O)[C@H](CC(C)C)NC(=O)[C@H](CC(C)C)NC(=O)OCc1ccccc1`, the “reduction in cell viability” value is reported as 86.5%.
With `NC(=O)N1c2ccccc2CC(=O)c2ccccc21` [Oxcarbazepine] the “reduction in cell viability” value was less than 0%.
`O=C1NC(=O)/C(=C/c2ccc3nccc(-c4ccncc4)c3c2)S1` was tested, and the “reduction in cell viability” value was less than 0%.
For `NC(=O)c1ccc2[nH]ccc2c1`, the “reduction in cell viability” value was less than 0%.
`C[C@H]1[C@H](NC(=O)/C(=N\OC(C)(C)C(=O)O)c2csc(N)n2)C(=O)N1S(=O)(=O)O` [Aztreonam] was tested, and the “reduction in cell viability” value was less than 0%.
`CO[C@@H]1[C@@H](OC(N)=O)[C@@H](O)[C@H](Oc2ccc3c(O)c(NC(=O)c4ccc(O)c(CC=C(C)C)c4)c(=O)oc3c2C)OC1(C)C` [Novobiocin sodium] was tested, and the “reduction in cell viability” value was less than 0%.
For `C[C@@H]1CC(=O)NN=C1c1ccc(NN=C(C#N)C#N)cc1` [Levosimendan], the “reduction in cell viability” value was less than 0%.
For `Nc1cccc(S(=O)(=O)N2CCCN(S(=O)(=O)c3ccc4c(c3)OCCO4)CC2)c1`, the “reduction in cell viability” value was less than 0%.
For `CCOC(=O)N1CCN(/[N+]([O-])=N/Oc2ccc([N+](=O)[O-])cc2[N+](=O)[O-])CC1`, the “reduction in cell viability” value was less than 0%.
In the case of `CC(C)NC[C@@H](C(=O)N1CCN(c2ncnc3c2[C@H](C)C[C@H]3O)CC1)c1ccc(Cl)cc1`, the “reduction in cell viability” value is reported as less than 0%.
